Results on one molecule are retold here after article PMC11046838.

The target of the test is γH2AX (mouse (endogenous in DRGs of C57BL/6 mice)) (UniProt P27661). The test is described as follows: co-IP; Co-IP Kit (Roche); protein extracts (RIPA buffer) of 18 pooled L3/4/5 DRGs from 6 mice per group (sham; SNI with mitochondrial injection); pre-cleared with protein G-agarose, anti-γH2AX antibody 1 h, protein G-agarose overnight at 4 °C; CTCF detected by Western blot. (In western blotting, separated proteins are transferred to a membrane and probed.)

No constants are given. Whether binding was seen depends on the method and setting. In cells and extracts the contact can be indirect. Some results given as binding are weak or reduced against the parent protein; the word gives no strength.

B1: CTCF (protein, UniProt Q61164 1-736)
chain: MEGEAVEAIVEESETFIKGKERKTYQRRREGGQEEDACHLPQNQTDGGEVVQDVNSSVQMVMMEQLDPTLLQMKTEVMEGTVAPEAEAAVDDTQIITLQVVNMEEQPINIGELQLVQVPVPVTVPVATTSVEELQGAYENEVSKEGLAESEPMICHTLPLPEGFQVVKVGANGEVETLEQGELPPQEDSSWQKDPDYQPPAKKTKKTKKSKLRYTEEGKDVDVSVYDFEEEQQEGLLSEVNAEKVVGNMKPPKPTKIKKKGVKKTFQCELCSYTCPRRSNLDRHMKSHTDERPHKCHLCGRAFRTVTLLRNHLNTHTGTRPHKCPDCDMAFVTSGELVRHRRYKHTHEKPFKCSMCDYASVEVSKLKRHIRSHTGERPFQCSLCSYASRDTYKLKRHMRTHSGEKPYECYICHARFTQSGTMKMHILQKHTENVAKFHCPHCDTVIARKSDLGVHLRKQHSYIEQGKKCRYCDAVFHERYALIQHQKSHKNEKRFKCDQCDYACRQERHMIMHKRTHTGEKPYACSHCDKTFRQKQLLDMHFKRYHDPNFVPAAFVCSKCGKTFTRRNTMARHADNCAGPDGVEGENGGETKKSKRGRKRKMRSKKEDSSDSEENAEPDLDDNEEEEEPAVEIEPEPEPQPQPPPPPQPVAPAPPPAKKRRGRPPGRTNQPKQNQPTAIIQVEDQNTGAIENIIVEVKKEPDAEPAEGEEEEAQAATTDAPNGDLTPEMILSMMDR
B1: the binding entry is reported as “binds”.
